Measurements taken from PMC12594171, “DKK3-LRP1 complex and a chemical inhibitor regulate Aβ clearance in models of Alzheimer’s disease” (Science Advances, 2025).
Results are given in words; binding and its absence hold for the method and conditions named. Binding seen in cells or lysates may run through a third protein. Binding can be weak; no strength is given.

Molecular target: LRP1, endogenous in human brain (human (endogenous in AD brain))
Assay: co-IP; human AD brain lysates, IP with antibodies to DKK1, DKK3 and LRP1, IgG as negative control, immunoblot

B1: DKK1, endogenous in human brain (ligand, UniProt O94907 32-266)
chain: TLNSVLNSNAIKNLPPPLGGAAGHPGSAVSAAPGILYPGGNKYQTIDNYQPYPCAEDEECGTDEYCASPTRGGDAGVQICLACRKRRKRCMRHAMCCPGNYCKNGICVSSDQNHFRGEIEETITESFGNDHSTLDGYSRRTTLSSKMYHTKGQEGSVCLRSSDCASGLCCARHFWSKICKPVLKEGQVCTKHRRKGSHGLEIFQRCYCGEGLSCRIQKDHHQASNSSRLHTCQRH
**Q.** How did the binding turn out when B1 was run?
**A.** Its binding is “binds”.
